The other results are listed elsewhere or left out.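 The calls were made as follows: active = dose-dependent thermal stabilisation significant by F-test of dose-response against flat model at 10% FDR; inactive = not significant.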
What follows are targets tested with Nc1nc2c(ncn2[C@@H]2O[C@H](COP(=O)(O)OP(=O)(O)OP(=O)(O)O)[C@@H](O)[C@H]2O)c(=O)[nH]1 (assay: dose-dependent thermal stabilisation call (2D-TPP, DLPTP, 10% FDR) (binary (1 = stabilised)); higher = stabilised by the compound). Settings: system: Jurkat gel-filtered lysate; concentration range 1-500 µM.

The chains behind the UniProt entries cited, without tags or fusion partners. Where a name states a change or a piece, a line headed by the entry shows the natural chain unless it says otherwise.
UniProt Q13217: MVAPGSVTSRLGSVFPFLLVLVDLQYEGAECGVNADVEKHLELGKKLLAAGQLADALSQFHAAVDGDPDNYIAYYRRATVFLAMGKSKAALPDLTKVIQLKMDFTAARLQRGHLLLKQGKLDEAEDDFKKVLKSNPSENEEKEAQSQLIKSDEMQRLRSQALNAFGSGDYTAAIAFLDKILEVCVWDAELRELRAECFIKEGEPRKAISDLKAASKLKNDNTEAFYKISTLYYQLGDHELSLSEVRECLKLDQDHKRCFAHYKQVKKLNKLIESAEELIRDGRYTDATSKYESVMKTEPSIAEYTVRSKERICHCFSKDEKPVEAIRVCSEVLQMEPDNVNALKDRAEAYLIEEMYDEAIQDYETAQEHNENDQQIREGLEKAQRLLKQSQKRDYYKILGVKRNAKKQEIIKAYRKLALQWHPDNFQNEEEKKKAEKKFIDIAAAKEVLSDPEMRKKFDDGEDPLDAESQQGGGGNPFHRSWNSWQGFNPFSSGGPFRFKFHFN
UniProt Q9NTX5: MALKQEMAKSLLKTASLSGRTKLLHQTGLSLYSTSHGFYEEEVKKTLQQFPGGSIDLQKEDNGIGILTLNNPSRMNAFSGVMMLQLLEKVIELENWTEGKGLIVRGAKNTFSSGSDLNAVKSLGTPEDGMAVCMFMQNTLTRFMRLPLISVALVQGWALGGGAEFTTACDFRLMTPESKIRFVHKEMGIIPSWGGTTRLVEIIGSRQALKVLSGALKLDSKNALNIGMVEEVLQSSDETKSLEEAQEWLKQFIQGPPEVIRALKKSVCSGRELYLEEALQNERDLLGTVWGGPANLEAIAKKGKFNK
UniProt Q8N5C7: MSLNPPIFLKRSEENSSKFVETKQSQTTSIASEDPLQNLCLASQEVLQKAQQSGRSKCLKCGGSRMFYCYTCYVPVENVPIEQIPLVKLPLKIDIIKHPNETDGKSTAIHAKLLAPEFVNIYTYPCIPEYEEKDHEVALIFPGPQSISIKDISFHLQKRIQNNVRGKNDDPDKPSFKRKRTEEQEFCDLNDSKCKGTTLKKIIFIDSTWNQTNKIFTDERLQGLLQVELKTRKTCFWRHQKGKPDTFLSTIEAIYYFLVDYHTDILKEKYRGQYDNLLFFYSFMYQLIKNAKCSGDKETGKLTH
UniProt Q96G04: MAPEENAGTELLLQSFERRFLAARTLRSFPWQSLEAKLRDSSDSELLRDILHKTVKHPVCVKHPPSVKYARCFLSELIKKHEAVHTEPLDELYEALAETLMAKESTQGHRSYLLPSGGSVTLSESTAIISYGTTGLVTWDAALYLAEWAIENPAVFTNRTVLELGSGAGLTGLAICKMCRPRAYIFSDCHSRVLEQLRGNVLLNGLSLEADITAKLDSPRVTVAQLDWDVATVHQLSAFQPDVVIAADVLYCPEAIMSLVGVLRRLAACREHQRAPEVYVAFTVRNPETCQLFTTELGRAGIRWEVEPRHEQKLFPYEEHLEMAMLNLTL
UniProt Q9Y2S2: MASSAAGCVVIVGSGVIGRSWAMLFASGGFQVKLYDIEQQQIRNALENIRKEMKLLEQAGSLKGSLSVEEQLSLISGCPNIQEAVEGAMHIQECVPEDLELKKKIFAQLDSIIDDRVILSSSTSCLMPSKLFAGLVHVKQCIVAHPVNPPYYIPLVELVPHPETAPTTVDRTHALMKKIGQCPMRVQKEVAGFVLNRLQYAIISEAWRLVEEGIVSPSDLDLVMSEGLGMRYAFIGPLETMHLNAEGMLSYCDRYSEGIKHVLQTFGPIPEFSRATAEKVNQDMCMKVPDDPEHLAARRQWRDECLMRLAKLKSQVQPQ
UniProt O95620: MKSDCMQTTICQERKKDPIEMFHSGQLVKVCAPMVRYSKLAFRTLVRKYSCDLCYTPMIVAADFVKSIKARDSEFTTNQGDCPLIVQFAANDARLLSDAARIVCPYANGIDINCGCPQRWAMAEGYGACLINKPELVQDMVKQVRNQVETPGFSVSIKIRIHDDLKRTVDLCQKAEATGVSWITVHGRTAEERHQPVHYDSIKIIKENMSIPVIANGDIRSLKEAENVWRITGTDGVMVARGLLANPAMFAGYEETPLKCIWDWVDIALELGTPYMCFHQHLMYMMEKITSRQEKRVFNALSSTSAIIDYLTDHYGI
UniProt Q16643: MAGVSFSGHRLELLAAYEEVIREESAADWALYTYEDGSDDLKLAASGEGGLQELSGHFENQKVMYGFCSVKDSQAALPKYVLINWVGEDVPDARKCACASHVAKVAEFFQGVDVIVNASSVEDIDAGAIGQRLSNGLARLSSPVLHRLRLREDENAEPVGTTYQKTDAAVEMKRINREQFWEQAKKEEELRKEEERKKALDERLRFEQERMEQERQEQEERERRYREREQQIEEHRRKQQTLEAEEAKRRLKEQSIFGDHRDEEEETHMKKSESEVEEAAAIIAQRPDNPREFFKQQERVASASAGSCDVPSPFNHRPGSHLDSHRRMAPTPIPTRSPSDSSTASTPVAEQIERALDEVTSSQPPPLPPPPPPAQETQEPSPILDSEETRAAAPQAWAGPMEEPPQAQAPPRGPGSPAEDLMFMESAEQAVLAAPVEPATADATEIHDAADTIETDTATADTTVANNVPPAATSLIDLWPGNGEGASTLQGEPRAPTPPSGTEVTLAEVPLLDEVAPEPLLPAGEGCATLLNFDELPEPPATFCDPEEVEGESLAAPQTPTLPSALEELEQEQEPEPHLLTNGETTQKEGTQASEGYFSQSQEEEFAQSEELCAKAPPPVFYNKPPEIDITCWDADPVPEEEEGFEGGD
UniProt P30084: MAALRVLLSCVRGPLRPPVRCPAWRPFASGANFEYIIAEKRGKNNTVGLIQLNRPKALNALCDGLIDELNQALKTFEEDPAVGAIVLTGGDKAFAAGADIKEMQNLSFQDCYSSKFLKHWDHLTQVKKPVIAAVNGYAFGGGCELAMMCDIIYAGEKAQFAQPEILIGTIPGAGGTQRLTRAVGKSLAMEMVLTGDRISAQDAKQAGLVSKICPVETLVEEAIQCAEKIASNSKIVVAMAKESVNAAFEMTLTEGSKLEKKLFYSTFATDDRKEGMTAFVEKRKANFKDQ
UniProt Q9H410: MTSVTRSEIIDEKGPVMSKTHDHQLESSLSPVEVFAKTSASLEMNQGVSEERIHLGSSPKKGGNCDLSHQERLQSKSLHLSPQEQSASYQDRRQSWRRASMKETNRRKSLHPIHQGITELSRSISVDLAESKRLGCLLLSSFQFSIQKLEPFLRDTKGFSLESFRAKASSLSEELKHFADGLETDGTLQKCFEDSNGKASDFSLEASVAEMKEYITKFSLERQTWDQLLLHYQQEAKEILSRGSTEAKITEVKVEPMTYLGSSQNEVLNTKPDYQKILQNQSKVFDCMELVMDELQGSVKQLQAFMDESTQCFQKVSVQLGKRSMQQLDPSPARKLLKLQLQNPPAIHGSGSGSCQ
UniProt O75937: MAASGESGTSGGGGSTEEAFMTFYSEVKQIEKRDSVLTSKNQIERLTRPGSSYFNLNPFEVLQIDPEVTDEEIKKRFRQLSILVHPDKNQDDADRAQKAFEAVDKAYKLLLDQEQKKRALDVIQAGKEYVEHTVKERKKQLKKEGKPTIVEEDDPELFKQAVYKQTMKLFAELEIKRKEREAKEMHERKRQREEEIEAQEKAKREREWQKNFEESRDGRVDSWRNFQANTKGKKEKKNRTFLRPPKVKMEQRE
UniProt Q96BY6: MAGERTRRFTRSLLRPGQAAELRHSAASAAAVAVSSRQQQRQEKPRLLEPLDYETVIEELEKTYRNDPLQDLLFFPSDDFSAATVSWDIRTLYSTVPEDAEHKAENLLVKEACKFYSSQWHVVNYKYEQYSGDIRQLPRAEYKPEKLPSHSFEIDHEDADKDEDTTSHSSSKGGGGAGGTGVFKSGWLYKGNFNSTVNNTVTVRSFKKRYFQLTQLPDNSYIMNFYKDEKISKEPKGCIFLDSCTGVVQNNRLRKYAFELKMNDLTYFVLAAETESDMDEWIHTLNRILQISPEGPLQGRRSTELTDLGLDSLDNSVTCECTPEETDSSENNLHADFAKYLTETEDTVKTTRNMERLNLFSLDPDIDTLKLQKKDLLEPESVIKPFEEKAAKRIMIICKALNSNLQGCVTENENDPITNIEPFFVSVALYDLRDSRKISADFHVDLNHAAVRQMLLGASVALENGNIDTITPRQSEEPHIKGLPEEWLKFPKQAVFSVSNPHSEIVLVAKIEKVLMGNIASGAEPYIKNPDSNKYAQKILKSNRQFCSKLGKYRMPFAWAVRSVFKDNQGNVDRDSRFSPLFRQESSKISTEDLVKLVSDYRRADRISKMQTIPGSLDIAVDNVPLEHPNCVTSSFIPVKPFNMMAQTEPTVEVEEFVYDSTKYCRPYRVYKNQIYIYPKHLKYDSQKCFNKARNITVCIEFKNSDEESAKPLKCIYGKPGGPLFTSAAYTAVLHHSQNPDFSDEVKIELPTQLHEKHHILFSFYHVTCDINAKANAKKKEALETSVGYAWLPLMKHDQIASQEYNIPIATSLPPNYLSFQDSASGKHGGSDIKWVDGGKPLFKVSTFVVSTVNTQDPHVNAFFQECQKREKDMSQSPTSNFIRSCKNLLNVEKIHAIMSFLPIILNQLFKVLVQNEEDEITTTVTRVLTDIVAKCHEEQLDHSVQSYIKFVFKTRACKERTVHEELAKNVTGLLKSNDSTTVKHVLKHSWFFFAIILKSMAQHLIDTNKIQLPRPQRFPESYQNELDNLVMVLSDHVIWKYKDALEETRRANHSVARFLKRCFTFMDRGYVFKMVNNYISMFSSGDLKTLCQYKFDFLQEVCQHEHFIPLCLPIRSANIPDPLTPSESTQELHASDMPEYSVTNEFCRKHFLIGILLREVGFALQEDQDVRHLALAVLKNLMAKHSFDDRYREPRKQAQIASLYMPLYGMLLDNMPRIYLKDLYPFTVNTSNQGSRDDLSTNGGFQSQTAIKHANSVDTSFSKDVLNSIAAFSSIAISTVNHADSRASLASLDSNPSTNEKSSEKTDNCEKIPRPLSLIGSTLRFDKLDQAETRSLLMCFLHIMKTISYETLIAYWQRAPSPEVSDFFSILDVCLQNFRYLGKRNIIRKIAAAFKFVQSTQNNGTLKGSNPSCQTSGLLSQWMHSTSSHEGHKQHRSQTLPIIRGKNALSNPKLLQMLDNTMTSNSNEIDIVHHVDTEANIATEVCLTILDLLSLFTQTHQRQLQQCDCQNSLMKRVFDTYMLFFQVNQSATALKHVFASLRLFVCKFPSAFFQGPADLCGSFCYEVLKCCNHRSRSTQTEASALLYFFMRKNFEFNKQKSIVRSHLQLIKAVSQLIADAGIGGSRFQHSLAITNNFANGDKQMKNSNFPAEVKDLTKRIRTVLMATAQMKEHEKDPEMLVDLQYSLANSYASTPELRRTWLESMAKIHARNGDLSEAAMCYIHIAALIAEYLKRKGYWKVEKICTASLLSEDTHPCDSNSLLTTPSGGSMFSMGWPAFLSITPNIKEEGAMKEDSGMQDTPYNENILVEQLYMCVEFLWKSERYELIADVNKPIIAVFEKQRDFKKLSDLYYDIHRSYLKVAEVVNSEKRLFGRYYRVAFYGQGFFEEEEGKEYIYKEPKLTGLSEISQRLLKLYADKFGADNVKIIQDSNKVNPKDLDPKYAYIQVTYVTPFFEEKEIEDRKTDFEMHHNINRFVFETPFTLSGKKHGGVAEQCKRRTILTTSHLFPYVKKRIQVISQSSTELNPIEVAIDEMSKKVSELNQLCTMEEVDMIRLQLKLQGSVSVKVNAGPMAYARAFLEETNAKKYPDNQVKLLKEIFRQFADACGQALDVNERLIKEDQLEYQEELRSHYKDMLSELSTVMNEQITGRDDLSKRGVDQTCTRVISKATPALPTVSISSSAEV
UniProt P32929, whole entry: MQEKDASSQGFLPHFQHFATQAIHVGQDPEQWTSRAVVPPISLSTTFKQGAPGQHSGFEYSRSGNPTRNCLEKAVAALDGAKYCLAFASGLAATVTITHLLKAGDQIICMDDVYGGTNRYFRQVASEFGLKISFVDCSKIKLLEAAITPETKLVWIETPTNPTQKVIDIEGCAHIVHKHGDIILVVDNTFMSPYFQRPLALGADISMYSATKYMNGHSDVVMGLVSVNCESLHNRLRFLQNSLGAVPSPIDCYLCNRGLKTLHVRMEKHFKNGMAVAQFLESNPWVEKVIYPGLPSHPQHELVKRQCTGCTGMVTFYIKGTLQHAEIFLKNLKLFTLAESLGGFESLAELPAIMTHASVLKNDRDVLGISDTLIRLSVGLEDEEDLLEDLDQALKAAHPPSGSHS
UniProt Q96EV8: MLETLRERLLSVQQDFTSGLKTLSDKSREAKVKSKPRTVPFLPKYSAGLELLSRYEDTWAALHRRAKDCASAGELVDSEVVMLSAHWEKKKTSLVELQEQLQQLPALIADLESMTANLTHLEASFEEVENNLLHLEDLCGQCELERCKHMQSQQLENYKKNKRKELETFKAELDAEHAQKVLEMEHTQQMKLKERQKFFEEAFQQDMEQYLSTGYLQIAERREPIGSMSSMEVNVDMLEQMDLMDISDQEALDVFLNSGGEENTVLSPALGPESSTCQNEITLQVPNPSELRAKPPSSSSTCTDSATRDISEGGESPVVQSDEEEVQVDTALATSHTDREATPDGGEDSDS

Row | Target | dose-dependent thermal stabilisation call
1 | DGCR14 (UniProt Q96DF8) | inactive: 0
2 | DNAJC3 (UniProt Q13217) | inactive: 0
3 | ECHDC1 (UniProt Q9NTX5) | inactive: 0
4 | DPH5 (UniProt Q9H2P9) | inactive: 0
5 | DTWD1 (UniProt Q8N5C7) | active: 1
6 | DYNC1LI1 (UniProt Q9Y6G9) | active: 1
7 | CUL4B (UniProt Q13620) | inactive: 0
8 | EEF2KMT (UniProt Q96G04) | inactive: 0
9 | EAF1 (UniProt Q96JC9) | inactive: 0
10 | DCTD (UniProt P32321) | inactive: 0
11 | CYFIP2 (UniProt Q96F07) | inactive: 0
12 | DOCK2 (UniProt Q92608) | inactive: 0
13 | CTDSPL2 (UniProt Q05D32) | inactive: 0
14 | DHX9 (UniProt Q08211) | inactive: 0
15 | CRYL1 (UniProt Q9Y2S2) | active: 1
16 | DCTN1 (UniProt Q14203) | inactive: 0
17 | DUS4L (UniProt O95620) | inactive: 0
18 | DBN1 (UniProt Q16643) | inactive: 0

Some values from above:
CYFIP2 (UniProt Q96F07) – dose-dependent thermal stabilisation call: inactive: 0
EAF1 (UniProt Q96JC9) – dose-dependent thermal stabilisation call: inactive: 0

Carrying on.

Row | Target | dose-dependent thermal stabilisation call
19 | ECHS1 (UniProt P30084) | inactive: 0
20 | DNMBP (UniProt Q6XZF7) | inactive: 0
21 | CTU1 (UniProt Q7Z7A3) | inactive: 0
22 | CS (UniProt O75390) | inactive: 0
23 | DCTN5 (UniProt Q9BTE1) | inactive: 0
24 | DSN1 (UniProt Q9H410) | inactive: 0
25 | DPH7 (UniProt Q9BTV6) | inactive: 0
26 | ECH1 (UniProt Q13011) | inactive: 0
27 | DFFA (UniProt O00273) | inactive: 0
28 | CTCF (UniProt P49711) | inactive: 0
29 | DNAJC2 (UniProt Q99543) | active: 1
30 | DOK2 (UniProt O60496) | active: 1
31 | DNAJC8 (UniProt O75937) | inactive: 0
32 | DOCK10 (UniProt Q96BY6) | inactive: 0
33 | DOCK11 (UniProt Q5JSL3) | inactive: 0
34 | CTH (UniProt P32929) | inactive: 0
35 | DTNBP1 (UniProt Q96EV8) | inactive: 0
36 | DCTN2 (UniProt Q13561) | inactive: 0

Reference: the supplement of paper PMC7666118
